In publication PMC5461506, “Strength of Neisseria meningitidis binding to endothelial cells requires highly-ordered CD147/β2-adrenoceptor clusters assembled by alpha-actinin-4” (Nature Communications, 2017):
No constants are given. Whether binding was seen depends on the method and setting. Some binding calls cover weakened binding; strength is not graded here.

Protein sequences, listed by entry. Tags and fused reporters are not part of them. Residues count along the entry.
UniProt P15311, residues 2-296: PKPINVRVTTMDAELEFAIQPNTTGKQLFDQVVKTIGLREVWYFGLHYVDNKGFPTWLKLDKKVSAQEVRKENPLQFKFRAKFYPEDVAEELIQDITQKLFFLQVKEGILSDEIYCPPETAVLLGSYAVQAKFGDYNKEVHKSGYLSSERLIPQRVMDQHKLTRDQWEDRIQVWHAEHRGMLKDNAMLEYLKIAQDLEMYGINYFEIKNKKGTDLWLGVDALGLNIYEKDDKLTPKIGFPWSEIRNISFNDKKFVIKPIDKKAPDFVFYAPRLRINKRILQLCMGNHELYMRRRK
UniProt O43707: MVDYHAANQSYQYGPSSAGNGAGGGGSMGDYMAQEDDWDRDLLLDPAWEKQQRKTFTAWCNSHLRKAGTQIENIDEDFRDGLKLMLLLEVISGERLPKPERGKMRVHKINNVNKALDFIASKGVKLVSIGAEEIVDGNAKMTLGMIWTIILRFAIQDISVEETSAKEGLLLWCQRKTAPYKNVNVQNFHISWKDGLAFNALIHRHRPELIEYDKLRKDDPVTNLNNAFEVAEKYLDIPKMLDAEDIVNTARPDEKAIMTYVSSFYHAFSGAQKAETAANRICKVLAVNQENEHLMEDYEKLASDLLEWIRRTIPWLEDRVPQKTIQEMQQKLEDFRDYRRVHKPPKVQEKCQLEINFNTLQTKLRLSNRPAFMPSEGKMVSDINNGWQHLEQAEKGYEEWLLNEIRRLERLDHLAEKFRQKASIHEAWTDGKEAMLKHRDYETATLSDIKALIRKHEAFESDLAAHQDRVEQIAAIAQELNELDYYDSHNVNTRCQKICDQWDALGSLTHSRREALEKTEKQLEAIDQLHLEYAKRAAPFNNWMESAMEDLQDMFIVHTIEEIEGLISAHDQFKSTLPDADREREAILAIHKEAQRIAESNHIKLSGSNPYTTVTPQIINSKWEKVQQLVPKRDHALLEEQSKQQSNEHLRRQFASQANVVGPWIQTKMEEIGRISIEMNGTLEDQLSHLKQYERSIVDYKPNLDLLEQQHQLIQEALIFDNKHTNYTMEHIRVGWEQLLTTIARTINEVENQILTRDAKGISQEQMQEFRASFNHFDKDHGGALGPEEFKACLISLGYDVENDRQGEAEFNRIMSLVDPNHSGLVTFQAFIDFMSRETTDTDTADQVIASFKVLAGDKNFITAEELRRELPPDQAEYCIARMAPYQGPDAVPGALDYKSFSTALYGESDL

Assays:
[1] = molecular target: T1, biotinylated peptide encoding the cytosolic sequence of CD147 (human); assay: SPR; BIAcore T200, biotinylated peptides captured on streptavidin chip (630 RU CD147, 286 RU CD44), GST fusions as analytes, non-reducing buffer (PBS, 0.02% Tween-20), 25 μl/min, 60 s association, 60 s dissociation; both purified
T1 sequence (peptide, biotin on the N-terminus): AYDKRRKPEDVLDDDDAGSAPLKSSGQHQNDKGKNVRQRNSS

[2] = molecular target: T1, biotinylated peptide encoding the cytosolic sequence of CD147 (human); assay: pull-down; 1 μg biotinylated peptide on streptavidin-coated beads, GST proteins 0.2 μg in PBS, 0.2% BSA, 1 h at 4 °C; immunoblot with anti-GST; both purified

Row | binding [1] | binding [2] | Substance
1 | binds weakly |  | GST-coupled four-point-one, ezrin, radixin, moesin (FERM) domain of ezrin (from UniProt P15311 2-296) (domain or fragment)
2 |  | binds | recombinant glutathione-S-transferase (GST)–Actn4 fusion protein (from UniProt O43707 1-911)
